In PMC11165193:
These are yes or no findings as the source states them, for the method shown. In cells and extracts the contact can be indirect. For some assays here: Binding can be weak; no strength is given. For some assays here: Where a sequence is shown, tags or fusion partners need not be part of it.

Assays:
[1] = biological target: T1, NOD2 tagged with GST (UniProt Q8K3Z0); assay: co-IP; 293T cells co-transfected with Flag-DUF16 and GST-NOD2; cell lysate; Figure 3F; which tag was precipitated is not told
T1 sequence: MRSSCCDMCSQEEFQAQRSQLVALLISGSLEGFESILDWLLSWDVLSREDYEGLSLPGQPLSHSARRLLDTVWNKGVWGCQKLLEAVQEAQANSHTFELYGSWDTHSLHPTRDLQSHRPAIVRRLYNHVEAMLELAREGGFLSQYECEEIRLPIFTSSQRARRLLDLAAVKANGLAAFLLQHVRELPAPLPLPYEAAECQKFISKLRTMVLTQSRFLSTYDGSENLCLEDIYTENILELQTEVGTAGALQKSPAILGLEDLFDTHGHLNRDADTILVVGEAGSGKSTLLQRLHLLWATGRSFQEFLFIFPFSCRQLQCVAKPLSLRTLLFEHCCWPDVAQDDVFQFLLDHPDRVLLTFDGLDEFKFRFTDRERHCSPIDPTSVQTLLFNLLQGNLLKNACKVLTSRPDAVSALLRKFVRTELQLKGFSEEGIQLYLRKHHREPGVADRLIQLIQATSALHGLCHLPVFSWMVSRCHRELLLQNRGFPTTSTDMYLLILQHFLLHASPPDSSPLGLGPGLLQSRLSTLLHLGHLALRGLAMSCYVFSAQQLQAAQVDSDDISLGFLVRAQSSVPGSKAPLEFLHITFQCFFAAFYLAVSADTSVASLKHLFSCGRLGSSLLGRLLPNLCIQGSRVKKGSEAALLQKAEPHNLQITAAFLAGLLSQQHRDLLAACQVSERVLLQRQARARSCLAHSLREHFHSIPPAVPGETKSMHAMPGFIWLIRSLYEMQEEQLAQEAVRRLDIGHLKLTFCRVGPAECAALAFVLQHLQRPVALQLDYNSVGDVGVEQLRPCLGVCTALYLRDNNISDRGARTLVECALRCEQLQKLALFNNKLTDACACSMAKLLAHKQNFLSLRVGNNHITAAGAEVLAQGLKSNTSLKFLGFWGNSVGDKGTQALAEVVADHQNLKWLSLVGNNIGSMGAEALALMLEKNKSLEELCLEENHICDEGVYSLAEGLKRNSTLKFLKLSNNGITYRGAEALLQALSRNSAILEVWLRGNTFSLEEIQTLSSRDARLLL

[2] = biological target: DUF16 tagged with Flag (M. pneumoniae); assay: co-IP; RAW264.7 cells transfected with DUF16; cell lysate; 'internal reverse IP'; Figure 3G
[3] = biological target: Flag-Δ3 (13-276 aa) (M. pneumoniae); assay: co-IP; RAW264.7 cells transfected with Flag-DUF16 truncations alone, 48 h; cell lysate; Co-IP using Flag tag; Western blot; Figure 6E,G,I
[4] = biological target: Flag-Δ2 (91–276 aa) (M. pneumoniae); assay: as above
[5] = biological target: Flag-Δ1 (1-90 aa) (M. pneumoniae); assay: as above
[6] = biological target: Flag-Δ3 (13-276 aa) (M. pneumoniae); assay: co-IP; 293T cells co-transfected with pcDNA3.1-GST-NOD2 and Flag-DUF16 truncations, 48 h; cell lysate; Co-IP using Flag tag; Western blot; Figure 6D,F,H
[7] = biological target: Flag-Δ2 (91–276 aa) (M. pneumoniae); assay: as above
[8] = biological target: Flag-Δ1 (1-90 aa) (M. pneumoniae); assay: as above

DUF16 tagged with Flag (M. pneumoniae) was tested, and the binding [1] was “binds”.

B1: NOD2 (endogenous in RAW264.7 macrophages) (receptor, UniProt Q8K3Z0 1-1020)
chain: MRSSCCDMCSQEEFQAQRSQLVALLISGSLEGFESILDWLLSWDVLSREDYEGLSLPGQPLSHSARRLLDTVWNKGVWGCQKLLEAVQEAQANSHTFELYGSWDTHSLHPTRDLQSHRPAIVRRLYNHVEAMLELAREGGFLSQYECEEIRLPIFTSSQRARRLLDLAAVKANGLAAFLLQHVRELPAPLPLPYEAAECQKFISKLRTMVLTQSRFLSTYDGSENLCLEDIYTENILELQTEVGTAGALQKSPAILGLEDLFDTHGHLNRDADTILVVGEAGSGKSTLLQRLHLLWATGRSFQEFLFIFPFSCRQLQCVAKPLSLRTLLFEHCCWPDVAQDDVFQFLLDHPDRVLLTFDGLDEFKFRFTDRERHCSPIDPTSVQTLLFNLLQGNLLKNACKVLTSRPDAVSALLRKFVRTELQLKGFSEEGIQLYLRKHHREPGVADRLIQLIQATSALHGLCHLPVFSWMVSRCHRELLLQNRGFPTTSTDMYLLILQHFLLHASPPDSSPLGLGPGLLQSRLSTLLHLGHLALRGLAMSCYVFSAQQLQAAQVDSDDISLGFLVRAQSSVPGSKAPLEFLHITFQCFFAAFYLAVSADTSVASLKHLFSCGRLGSSLLGRLLPNLCIQGSRVKKGSEAALLQKAEPHNLQITAAFLAGLLSQQHRDLLAACQVSERVLLQRQARARSCLAHSLREHFHSIPPAVPGETKSMHAMPGFIWLIRSLYEMQEEQLAQEAVRRLDIGHLKLTFCRVGPAECAALAFVLQHLQRPVALQLDYNSVGDVGVEQLRPCLGVCTALYLRDNNISDRGARTLVECALRCEQLQKLALFNNKLTDACACSMAKLLAHKQNFLSLRVGNNHITAAGAEVLAQGLKSNTSLKFLGFWGNSVGDKGTQALAEVVADHQNLKWLSLVGNNIGSMGAEALALMLEKNKSLEELCLEENHICDEGVYSLAEGLKRNSTLKFLKLSNNGITYRGAEALLQALSRNSAILEVWLRGNTFSLEEIQTLSSRDARLLL
B1 was tested, and the binding [2] was “binds”, the binding [3] was “binds” and the binding [4] was “no binding”. For the same molecule, the binding [5] was “binds”.

B2: NOD2 tagged with GST (receptor, UniProt Q8K3Z0 1-1020)
chain: MRSSCCDMCSQEEFQAQRSQLVALLISGSLEGFESILDWLLSWDVLSREDYEGLSLPGQPLSHSARRLLDTVWNKGVWGCQKLLEAVQEAQANSHTFELYGSWDTHSLHPTRDLQSHRPAIVRRLYNHVEAMLELAREGGFLSQYECEEIRLPIFTSSQRARRLLDLAAVKANGLAAFLLQHVRELPAPLPLPYEAAECQKFISKLRTMVLTQSRFLSTYDGSENLCLEDIYTENILELQTEVGTAGALQKSPAILGLEDLFDTHGHLNRDADTILVVGEAGSGKSTLLQRLHLLWATGRSFQEFLFIFPFSCRQLQCVAKPLSLRTLLFEHCCWPDVAQDDVFQFLLDHPDRVLLTFDGLDEFKFRFTDRERHCSPIDPTSVQTLLFNLLQGNLLKNACKVLTSRPDAVSALLRKFVRTELQLKGFSEEGIQLYLRKHHREPGVADRLIQLIQATSALHGLCHLPVFSWMVSRCHRELLLQNRGFPTTSTDMYLLILQHFLLHASPPDSSPLGLGPGLLQSRLSTLLHLGHLALRGLAMSCYVFSAQQLQAAQVDSDDISLGFLVRAQSSVPGSKAPLEFLHITFQCFFAAFYLAVSADTSVASLKHLFSCGRLGSSLLGRLLPNLCIQGSRVKKGSEAALLQKAEPHNLQITAAFLAGLLSQQHRDLLAACQVSERVLLQRQARARSCLAHSLREHFHSIPPAVPGETKSMHAMPGFIWLIRSLYEMQEEQLAQEAVRRLDIGHLKLTFCRVGPAECAALAFVLQHLQRPVALQLDYNSVGDVGVEQLRPCLGVCTALYLRDNNISDRGARTLVECALRCEQLQKLALFNNKLTDACACSMAKLLAHKQNFLSLRVGNNHITAAGAEVLAQGLKSNTSLKFLGFWGNSVGDKGTQALAEVVADHQNLKWLSLVGNNIGSMGAEALALMLEKNKSLEELCLEENHICDEGVYSLAEGLKRNSTLKFLKLSNNGITYRGAEALLQALSRNSAILEVWLRGNTFSLEEIQTLSSRDARLLL
In the case of B2, the binding [6] is reported as “binds”, the binding [7] is reported as “no binding” and the binding [8] is reported as “binds”.
